In the supplement of paper PMC8616043:
Counter-ions that a name gives are not always drawn. The list shows a part of the results. Repeats in this data set agree poorly, so a single value says little.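 PR50, a 50-repeat proline–arginine dipeptide protein from C9ORF72 (ALS/FTD), was expressed by transfection in U-2 OS human cells stably carrying a GFP sensor with import and classical export signals. Per-well nuclear-minus-cytoplasm GFP, normalized between in-plate DMSO (low) and PR-only (high), was scored versus other test wells; compounds well below zero were hits reversing PR.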

Tested on: U-2 OS NCT-C biosensor cells expressing PR50
Assay: Z-score of normalised NCT-C biosensor translocation index in PR50-expressing cells; higher = more nuclear biosensor (more disrupted nuclear export)
Conditions: 3 µM; 24 h

Compound	Z-score
C[C@]12C=CC(=O)N[C@@H]1CC[C@@H]1[C@@H]2CC[C@]2(C)[C@@H](C(=O)Nc3cc(C(F)(F)F)ccc3C(F)(F)F)CC[C@@H]12 [Dutasteride]	inactive: -0.0064
N=C(N)NCCCCNC(=N)N [Arcaine sulfate]	inactive: -0.0313
CCCNC(=O)NS(=O)(=O)c1ccc(Cl)cc1 [Chlorpropamide]	inactive: 2.32
CCN(CC)C(C)CN1c2ccccc2Sc2ccccc21 (stereo not drawn) [Ethopropazine hydrochloride]	inactive: 0.278
Cc1cnc(Nc2ccc(OCCN3CCCC3)cc2)nc1Nc1cccc(S(=O)(=O)NC(C)(C)C)c1	inactive: -0.934
CN(C)CCCN1c2ccccc2Sc2ccc(Cl)cc21 [Chlorpromazine·HCl]	inactive: 1.62
CN(C)CCCN1c2ccccc2Sc2ccc(Cl)cc21 [Chlorpromazine hydrochloride]	inactive: 0.248
O=C(OC12CC3CC(CC(C3)C1)C2)c1ccc(NCc2cc(O)ccc2O)cc1 [Adaphostin]	inactive: 1.35
COc1cc([C@@H]2c3cc4c(cc3[C@@H](O[C@@H]3O[C@@H]5CO[C@@H](c6cccs6)O[C@H]5[C@H](O)[C@H]3O)[C@H]3COC(=O)[C@H]23)OCO4)cc(OC)c1O [Teniposide]	inactive: -0.955
CC1(C)C2CCC1(C(=O)O)C(=O)C2 (stereo not drawn) [Ketopinic acid]	inactive: -0.628
CCCCOc1cc(CC2CNC(=O)N2)ccc1OC (stereo not drawn)	inactive: 3.73
CC(C)Cn1c(=O)n(C)c(=O)c2[nH]cnc21 [3-Isobutyl-1- methylxanthine]	inactive: 0.341
Clc1cccc(Cl)c1CSc1nnc(-c2cnccn2)s1	inactive: -0.0792
CC(=O)N[C@H](C(=O)N[C@@H](CC(=O)O)C(=O)N[C@@H](CCCN=C(N)CF)C(N)=O)[C@@H](C)O [TDFA  trifluoroacetate salt]	inactive: -0.301
C=C(C)[C@@H](CC=C(C)C)C[C@@]12C[C@@H](CC=C(C)C)C(C)(C)[C@@](CC=C(C)C)(C(=O)C(C(=O)c3ccc(O)c(O)c3)=C1O)C2=O [Garcinol]	inactive: -1.04
Nc1ncnc2c1ncn2C1CCCO1 (stereo not drawn)	inactive: -0.216
Nc1ccn([C@@H]2O[C@H](CO)[C@@H](O)[C@@H]2O)c(=O)n1 [Cytarabine]	inactive: 0.526
Nc1ccn([C@@H]2O[C@H](CO)[C@@H](O)[C@@H]2O)c(=O)n1 [Cytosine-1-beta-D- arabinofuranoside hydrochloride]	inactive: -0.363
COc1ccnc(C[S+]([O-])c2nc3cc(OC(F)F)ccc3[nH]2)c1OC (stereo not drawn) [Pantoprazole]	inactive: -0.0167
N[C@@H](Cc1ccc(O)c(I)c1)C(=O)O [3-Iodo-L-tyrosine]	inactive: 0.355
C[C@H]1O[C@@H](Oc2c(-c3cc(O)c(O)c(O)c3)oc3cc(O)cc(O)c3c2=O)[C@@H](O)[C@@H](O)[C@@H]1O [Myricitrin]	inactive: -0.426

Compound	Z-score
CC[C@@H](C(=O)[C@@H](C)[C@@H](O)[C@H](C)CCc1ccc(C)c(O)c1C(=O)O)[C@H]1O[C@](CC)([C@H]2CC[C@](O)(CC)[C@H](C)O2)C[C@@H]1C [Lasalocid A]	inactive: 0.276
C=C1C(=O)O[C@@H](CCC)[C@@H]1C(=O)O [Butyrolactone 3]	inactive: 2.78
CCCCN1CCCCC1C(=O)Nc1c(C)cccc1C (stereo not drawn) [Bupivacaine·HCl]	inactive: -0.309
Cc1nc(Nc2ncc(C(=O)Nc3c(C)cccc3Cl)s2)cc(N2CCN(CCO)CC2)n1 [Dasatinib]	inactive: 0.0962
CCN(CCO)CCCC(C)Nc1ccnc2cc(Cl)ccc12 (stereo not drawn) [Hydroxychloroquine Sulfate]	inactive: 0.379
CCOC(=O)c1c(CSc2ccccc2)n(C)c2cc(Br)c(O)c(CN(C)C)c12 [Arbidol hydrochloride]	inactive: 0.000953
COc1ccc(CC2c3cc(OC)c(OC)cc3CC[N+]2(C)CCC(=O)OCCCCCOC(=O)CC[N+]2(C)CCc3cc(OC)c(OC)cc3C2Cc2ccc(OC)c(OC)c2)cc1OC (stereo not drawn) [Atracurium Besylate]	inactive: 0.214
Cc1nc(-c2ccc(OCC(C)C)c(C#N)c2)sc1C(=O)O [Febuxostat]	inactive: 1.46
CN(C)[C@@H]1C(O)=C(C(N)=O)C(=O)[C@@]2(O)C(O)=C3C(=O)c4c(O)cccc4[C@@](C)(O)[C@H]3[C@H](O)[C@@H]12 [Oxytetracycline·HCl]	inactive: -0.321
Nc1ccc(CCNc2ncnc3c2ncn3C2OC(CO)C(O)C2O)cc1 (stereo not drawn) [N6-2-(4-  Aminophenyl)ethylad enosine]	inactive: 0.539
Oc1ccc2c(c1)CC[C@H](c1ccccc1)[C@@H]2c1ccc(OCCN2CCCC2)cc1 [Lasofoxifene tartrate]	inactive: -0.781
NC(N)=Nc1nc(CSCC/C(N)=N/S(N)(=O)=O)cs1 [Famotidine]	inactive: 1.47
CC1=C(/C=C/C(C)=C/C=C/C(C)=C\C(=O)O)C(C)(C)CCC1 [Isotretinoin (13-Cis-Retinoic Acid)]	inactive: 0.885
CC1=C(/C=C/C(C)=C/C=C/C(C)=C\C(=O)O)C(C)(C)CCC1 [13-cis-retinoic acid]	inactive: -1.11
CC1=C(/C=C/C(C)=C/C=C/C(C)=C\C(=O)O)C(C)(C)CCC1 [13-cis-Retinoic acid]	inactive: -0.843
Nc1nc(OCc2ccccc2)c2nc[nH]c2n1 [O6-benzylguanine]	inactive: 2.63
NC1C=CC=C(C(=O)O)C1 (stereo not drawn) [Gabaculine hydrochloride]	inactive: 0.558
CC(C)(Sc1ccc(CCN(CCCCC2CCCCC2)C(=O)NC2CCCCC2)cc1)C(=O)O	inactive: 0.186
CSc1ccc2c(c1)N(CCC1CCCCN1C)c1ccccc1S2 (stereo not drawn) [Thioridazine hydrochloride]	inactive: -0.238
CSc1ccc2c(c1)N(CCC1CCCCN1C)c1ccccc1S2 (stereo not drawn) [Thioridazine·HCl]	inactive: 0.58
CC(C)(N)C(=O)N[C@H](COCc1ccccc1)C(=O)N1CCC2(CC1)CN(S(C)(=O)=O)c1ccccc12	inactive: -0.85

Compound	Z-score
O=c1cc(-c2ccc(O)cc2)oc2c([C@@H]3O[C@H](CO)[C@@H](O)[C@H](O)[C@H]3O)c(O)cc(O)c12 [Vitexin]	inactive: 0.217
CC[N+](CC)(CC)CC(=O)Nc1c(C)cccc1C [Lidocaine N-ethyl bromide]	inactive: 0.175
COc1cc(NC(C)CCCN)c2ncccc2c1 (stereo not drawn) [Primaquine diphosphate]	inactive: -0.102
CC(=O)OC[C@@]1(O)C[C@@]23CC[C@@H]4c5ccoc5C=C[C@@]4(C)[C@@H]2CC[C@@H]1C3 [Kahweol Acetate]	inactive: -0.5
Cc1ccc(S(=O)(=O)NC(=O)NN2CCCCCC2)cc1 [Tolazamide]	inactive: -0.435
Cn1cccc1/C=C1\C(=O)NC(=O)c2ccccc21	inactive: -1.05
C[C@]12CC[C@@H]3c4ccc(OS(=O)(=O)O)cc4CC[C@H]3[C@@H]1CCC2=O [Estropipate]	inactive: 0.416
C=CCn1c(=O)c2c(nc(-c3ccc(S(=O)(=O)O)cc3)n2C)n(C)c1=O [1-Allyl-3,7- dimethyl-8-p- sulfophenyl xanthine]	inactive: 1.15
C[C@H]1[C@H](C)CC[C@]2(C(=O)O)CC[C@]3(C)C(=CC[C@@H]4[C@@]5(C)C[C@@H](O)[C@H](O)[C@@](C)(CO)[C@@H]5CC[C@]43C)[C@H]12 [Asiatic acid]	inactive: -0.977
CN(Cc1cnc2nc(N)nc(N)c2n1)c1ccc(C(=O)N[C@@H](CCC(=O)O)C(=O)O)cc1 [Methotrexate]	inactive: -0.516
Nc1nc(NC2CC2)c2ncn([C@H]3C=C[C@@H](CO)C3)c2n1 [Abacavir Sulfate]	inactive: 0.832
CC(C)C[C@H](C(=O)O)c1cc(-c2ccc(C(F)(F)F)cc2)cc(-c2ccc(C(F)(F)F)cc2)c1	inactive: -0.0335
CCN1CCc2nc(N)oc2CC1 [B-HT 933  dihydrochloride]	inactive: 2.01
C[N+](C)(C)CCOC(=O)CCC(=O)OCC[N+](C)(C)C [Succinylcholine Chloride·2H2O]	inactive: 0.504
C[N+](C)(C)CCOC(=O)CCC(=O)OCC[N+](C)(C)C [Succinylcholine chloride]	inactive: 0.0888
CC(Cc1ccc(O)c(O)c1)(NN)C(=O)O (stereo not drawn) [S-(-)-Carbidopa]	inactive: 0.0521
CN(C)c1ccc(O)c2c1C[C@H]1C[C@H]3[C@H](N(C)C)C(O)=C(C(N)=O)C(=O)[C@@]3(O)C(O)=C1C2=O [Minocycline]	inactive: -0.0187
CN(C)c1ccc(O)c2c1C[C@H]1C[C@H]3[C@H](N(C)C)C(O)=C(C(N)=O)C(=O)[C@@]3(O)C(O)=C1C2=O [Minocycline HCl]	inactive: 0.59
CN(C)c1ccc(O)c2c1C[C@H]1C[C@H]3[C@H](N(C)C)C(O)=C(C(N)=O)C(=O)[C@@]3(O)C(O)=C1C2=O [Minocycline·HCl]	inactive: -0.571
O=C1CCCC(=O)C1C(=O)c1ccc(C(F)(F)F)cc1[N+](=O)[O-] [Nitisinone]	inactive: -0.471
CN(C)CC/C=C1/c2ccccc2COc2ccc(CC(=O)O)cc21 [Olopatadine]	inactive: 0.0122

Laid out differently: entries from further up
Compound | Z-score
O=c1cc(-c2ccc(O)cc2)oc2c([C@@H]3O[C@H](CO)[C@@H](O)[C@H](O)[C@H]3O)c(O)cc(O)c12 [Vitexin] | inactive: 0.217
CC[N+](CC)(CC)CC(=O)Nc1c(C)cccc1C [Lidocaine N-ethyl bromide] | inactive: 0.175
C[C@]12CC[C@@H]3c4ccc(OS(=O)(=O)O)cc4CC[C@H]3[C@@H]1CCC2=O [Estropipate] | inactive: 0.416
C[C@H]1[C@H](C)CC[C@]2(C(=O)O)CC[C@]3(C)C(=CC[C@@H]4[C@@]5(C)C[C@@H](O)[C@H](O)[C@@](C)(CO)[C@@H]5CC[C@]43C)[C@H]12 [Asiatic acid] | inactive: -0.977
CN(Cc1cnc2nc(N)nc(N)c2n1)c1ccc(C(=O)N[C@@H](CCC(=O)O)C(=O)O)cc1 [Methotrexate] | inactive: -0.516
Nc1nc(NC2CC2)c2ncn([C@H]3C=C[C@@H](CO)C3)c2n1 [Abacavir Sulfate] | inactive: 0.832
CC(C)C[C@H](C(=O)O)c1cc(-c2ccc(C(F)(F)F)cc2)cc(-c2ccc(C(F)(F)F)cc2)c1 | inactive: -0.0335
CCN1CCc2nc(N)oc2CC1 [B-HT 933  dihydrochloride] | inactive: 2.01
C[N+](C)(C)CCOC(=O)CCC(=O)OCC[N+](C)(C)C [Succinylcholine Chloride·2H2O] | inactive: 0.504
C[N+](C)(C)CCOC(=O)CCC(=O)OCC[N+](C)(C)C [Succinylcholine chloride] | inactive: 0.0888
CC(Cc1ccc(O)c(O)c1)(NN)C(=O)O (stereo not drawn) [S-(-)-Carbidopa] | inactive: 0.0521
CN(C)c1ccc(O)c2c1C[C@H]1C[C@H]3[C@H](N(C)C)C(O)=C(C(N)=O)C(=O)[C@@]3(O)C(O)=C1C2=O [Minocycline] | inactive: -0.0187
CN(C)c1ccc(O)c2c1C[C@H]1C[C@H]3[C@H](N(C)C)C(O)=C(C(N)=O)C(=O)[C@@]3(O)C(O)=C1C2=O [Minocycline HCl] | inactive: 0.59
O=C1CCCC(=O)C1C(=O)c1ccc(C(F)(F)F)cc1[N+](=O)[O-] [Nitisinone] | inactive: -0.471
CN(C)CC/C=C1/c2ccccc2COc2ccc(CC(=O)O)cc21 [Olopatadine] | inactive: 0.0122
